{"sequences": {"note": "Chains of the proteins cited; added tags and fusions are not shown.", "UniProt P09429": "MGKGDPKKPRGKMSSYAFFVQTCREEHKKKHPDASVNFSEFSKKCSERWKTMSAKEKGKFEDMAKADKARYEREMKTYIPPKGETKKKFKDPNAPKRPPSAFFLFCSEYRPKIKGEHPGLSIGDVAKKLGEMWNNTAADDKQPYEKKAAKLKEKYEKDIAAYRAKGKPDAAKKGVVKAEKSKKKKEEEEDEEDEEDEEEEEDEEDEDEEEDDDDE"}, "source": "paper PMC6700799", "molecules": {"B1": {"name": "RB protein (protein, UniProt P06400 1-928)", "chain": "MPPKTPRKTAATAAAAAAEPPAPPPPPPPEEDPEQDSGPEDLPLVRLEFEETEEPDFTALCQKLKIPDHVRERAWLTWEKVSSVDGVLGGYIQKKKELWGICIFIAAVDLDEMSFTFTELQKNIEISVHKFFNLLKEIDTSTKVDNAMSRLLKKYDVLFALFSKLERTCELIYLTQPSSSISTEINSALVLKVSWITFLLAKGEVLQMEDDLVISFQLMLCVLDYFIKLSPPMLLKEPYKTAVIPINGSPRTPRRGQNRSARIAKQLENDTRIIEVLCKEHECNIDEVKNVYFKNFIPFMNSLGLVTSNGLPEVENLSKRYEEIYLKNKDLDARLFLDHDKTLQTDSIDSFETQRTPRKSNLDEEVNVIPPHTPVRTVMNTIQQLMMILNSASDQPSENLISYFNNCTVNPKESILKRVKDIGYIFKEKFAKAVGQGCVEIGSQRYKLGVRLYYRVMESMLKSEEERLSIQNFSKLLNDNIFHMSLLACALEVVMATYSRSTSQNLDSGTDLSFPWILNVLNLKAFDFYKVIESFIKAEGNLTREMIKHLERCEHRIMESLAWLSDSPLFDLIKQSKDREGPTDHLESACPLNLPLQNNHTAADMYLSPVRSPKKKGSTTRVNSTANAETQATSAFQTQKPLKSTSLSLFYKKVYRLAYLRLNTLCERLLSEHPELEHIIWTLFQHTLQNEYELMRDRHLDQIMMCSMYGICKVKNIDLKFKIIVTAYKDLPHAVQETFKRVLIKEEEYDSIIVFYNSVFMQRLKTNILQYASTRPPTLSPIPHIPRSPYKFPSSPLRIPGGNIYISPLKSPYKISEGLPTPTKMTPRSRILVSIGESFGTSEKFQKINQMVCNSDRVLKRSAEGSNPPKPLKKLRFDIEGSDEADGSKHLPGESKFQQKLAEMTSTRTRMQKQKMNDSMDTSNKEEK"}}, "key": {"[1]": {"target": "T1, SEPT9 protein (human (endogenous in HeLa)) (UniProt Q9UHD8)", "T1 sequence": "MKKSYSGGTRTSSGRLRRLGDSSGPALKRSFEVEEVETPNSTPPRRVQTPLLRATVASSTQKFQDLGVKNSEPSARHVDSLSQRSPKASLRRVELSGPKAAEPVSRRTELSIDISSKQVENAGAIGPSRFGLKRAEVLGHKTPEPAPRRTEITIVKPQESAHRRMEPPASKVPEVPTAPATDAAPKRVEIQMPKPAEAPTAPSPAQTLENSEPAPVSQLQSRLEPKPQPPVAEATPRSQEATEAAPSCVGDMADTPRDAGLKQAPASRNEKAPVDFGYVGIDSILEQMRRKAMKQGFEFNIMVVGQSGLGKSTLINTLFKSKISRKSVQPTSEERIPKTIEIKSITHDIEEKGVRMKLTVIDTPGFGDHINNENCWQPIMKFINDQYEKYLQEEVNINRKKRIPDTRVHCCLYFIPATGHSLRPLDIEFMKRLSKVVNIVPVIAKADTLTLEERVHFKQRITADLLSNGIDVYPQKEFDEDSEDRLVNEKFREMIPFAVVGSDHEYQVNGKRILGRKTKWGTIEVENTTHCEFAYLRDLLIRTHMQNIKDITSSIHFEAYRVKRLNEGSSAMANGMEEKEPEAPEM", "experiment": "co-IP; nuclear extracts from HeLa, endogenous proteins; IP with 5 ug antibody and 500 ug protein, protein A+G beads, Western blotting"}, "[2]": {"target": "HMGB1 protein (human (endogenous in HeLa and CaSki)) (UniProt P09429)", "experiment": "co-IP; nuclear extracts from HeLa, endogenous proteins; IP with 5 ug antibody and 500 ug protein, protein A+G beads, Western blotting"}}, "note": "No constants are given. Whether binding was seen depends on the method and setting. In cells and extracts the contact can be indirect. Some binding calls cover weakened binding; strength is not graded here."}
{"molecule": "HMGB1 protein (from UniProt P09429 1-215)", "values": [{"measurement": "binding", "setting": "[1]", "value": "binds"}]}
{"molecule": "B1", "values": [{"measurement": "binding", "setting": "[2]", "value": "binds"}]}
